From US20170112945A1, “Anchoring and/or Impregnation of Biological Vehicles with Cargo Molecules using a Subcritical or Supercritical Fluid” (NO[…]., priority 2015, published 2017)

Test system: spores
Test: Penetration of peracetic acid into spores under subcritical or supercritical carbon dioxide
Conditions: subcritical or supercritical carbon dioxide treatment

## CC(=O)OO [peracetic acid]
  penetration of the spore: can reach the spore core
Listed as PAA
  penetration of the spore: can penetrate deeply inside spores
